Results deposited as PubChem BioAssay AID1159584 (Peter MacCallum Cancer Centre, 2016)
Here is one part, drawn at random, of about 18,000 reagents. Not given: the amount of reagent, the time to read-out.

Aim: 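Genes that CDH1-null MCF10A cells selectively depend on to survive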 (primary screen)
Cell system: human MCF10A breast epithelial cells, parental and CDH1-null
Knock-down reagent: siRNA against human genes
Measurement: 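Cell viability by CellTiter-Glo ATP luminescence, each line scaled to the mean of mock wells across plates, then CDH1-null over parental ratio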
Scale: CDH1-null / parental viability ratio: higher = CDH1-null cells survive relatively better than parental; CDH1-null viability vs mock: higher = more viable CDH1-null cells; parental viability vs mock: higher = more viable parental cells

| gene | CDH1-null / parental viability ratio | CDH1-null viability vs mock (fraction of mock) | parental viability vs mock (fraction of mock) |
| --- | --- | --- | --- |
| HOXA3 | 1.05 | 0.86 | 0.82 |
| DOC2B | 1 | 0.96 | 0.96 |
| RABGGTB | 1.48 | 0.8 | 0.54 |
| CDADC1 | 0.81 | 0.68 | 0.84 |
| GALK2 | 0.96 | 0.65 | 0.68 |
| IARS2 | 1.14 | 0.9 | 0.79 |
| F11 | 1.21 | 0.68 | 0.56 |
| SGPL1 | 0.99 | 1.02 | 1.03 |
| GHDC | 1.29 | 0.4 | 0.31 |
| MTSS1 | 0.96 | 0.8 | 0.83 |
| CHRNA3 | 1.29 | 0.98 | 0.76 |
| RILP | 0.94 | 0.33 | 0.35 |
| LYZL6 | 1.19 | 0.86 | 0.72 |
| ADGRV1 | 0.82 | 0.94 | 1.15 |
| GRM1 | 0.65 | 0.53 | 0.82 |
| TNPO2 | 0.73 | 0.52 | 0.71 |
| DACT1 | 1.21 | 1.29 | 1.07 |
| RHBDF2 | 1.11 | 0.84 | 0.76 |
| FNDC7 | 0.78 | 0.7 | 0.9 |
| HACL1 | 0.79 | 0.78 | 0.99 |
| PLA2G10 | 1.22 | 0.89 | 0.73 |
| RTCA | 0.86 | 0.62 | 0.72 |
| UBL5 | 0.8 | 0.32 | 0.4 |
| CCL3 | 1.39 | 0.64 | 0.46 |
| SEC23B | 0.76 | 0.52 | 0.68 |
| EXPH5 | 1.29 | 0.9 | 0.7 |
| BSND | 1.2 | 0.79 | 0.66 |
| TLCD3B | 1.14 | 0.92 | 0.81 |
| CSMD2 | 1 | 0.85 | 0.85 |
| CMBL | 1.17 | 0.98 | 0.84 |
| PARD6B | 0.88 | 0.81 | 0.92 |
| PAQR3 | 0.83 | 0.85 | 1.02 |
| TMEM109 | 1.15 | 0.84 | 0.73 |
| C12orf60 | 1 | 0.74 | 0.74 |
| ATP6V0D2 | 0.82 | 0.66 | 0.8 |
| UCN | 1.23 | 0.69 | 0.56 |
| TAFAZZIN | 1.05 | 0.86 | 0.82 |
| CHRNA7 | 1.17 | 0.82 | 0.7 |
| RPS6KA1 | 1.09 | 0.86 | 0.79 |
| FSHB | 0.73 | 0.64 | 0.88 |
| PCDHB12 | 1.6 | 0.88 | 0.55 |
| CD160 | 0.8 | 0.48 | 0.6 |
| HOATZ | 0.97 | 0.74 | 0.76 |
| SLC46A3 | 0.55 | 0.29 | 0.53 |
| H3C10 | 1.18 | 0.78 | 0.66 |
| CES1 | 0.8 | 0.72 | 0.9 |

4 entries from above in another layout.
{"gene":"F11","CDH1-null / parental viability ratio":1.21,"CDH1-null viability vs mock (fraction of mock)":0.68,"parental viability vs mock (fraction of mock)":0.56}
{"gene":"SGPL1","CDH1-null / parental viability ratio":0.99,"CDH1-null viability vs mock (fraction of mock)":1.02,"parental viability vs mock (fraction of mock)":1.03}
{"gene":"GHDC","CDH1-null / parental viability ratio":1.29,"CDH1-null viability vs mock (fraction of mock)":0.4,"parental viability vs mock (fraction of mock)":0.31}
{"gene":"MTSS1","CDH1-null / parental viability ratio":0.96,"CDH1-null viability vs mock (fraction of mock)":0.8,"parental viability vs mock (fraction of mock)":0.83}
